# PubChem BioAssay AID743325 (National Center for Advancing Translational Sciences (NCATS), 2014)
# The inconclusive results got no clear call from the source; some entries with a clear call stand among them for comparison. Potencies of inconclusive entries are doubtful fits and often do not repeat. The source made the active and inactive calls. The call rests on the fitted dose curve.
# Experiment: qHTS profiling of Chloroquine Analogs as inhibitors of Plasmodium falciparum (3D7) proliferation
# Conditions: series mostly up to 28.7 µM
# Description: Plasmodium falciparum is a virulent malarial parasite that kills 1-2 million people worldwide each year. Transmitted by mosquitoes, the sporozoite form of the parasite enters the blood stream to infect hepatocytes, where they become merozoites that infect red blood cells (erythrocytes). Within erythrocytes, merozoites begin a […] cycle of growth and division, after which the parasite is released to infect new red blood cells. Gametocytes, which form within erythrocytes as well, circulate in the bloodstream and are ingested by the mosquito, thereby completing the life cycle. To profile malarial isolates for differential chemical responses and to identify inhibitors of malarial growth, an assay that measures P. falciparum growth and replication within erythrocytes was employed. This assay uses a DNA binding fluorescent dye (SYBR Green) to detect parasite DNA following cell lysis. Because mature erythrocytes lack DNA, only Plasmodium-derived DNA is detected.
# The SYBR Green viability assay was adapted from a method described previously (Plouffe et al., 2008). For screening 3 ul culture medium was dispensed into 1536 well black clear bottom plates (Aurora Biotechnologies) using a Multidrop Combi (Thermo Fisher Scientific Inc.), 23 nL compounds in DMSO were added by a pin tool (Kalypsys), and 5 ul of erythrocytes infected with P. falciparum (0.3% parasitemia, 2.5% hematocrit final concentration) were added. The plates were incubated at 37 C in a humidified incubator in 5% CO2 for 72 h, and 2 ul lysis buffer (20 mM Tris HCl, 10 mM EDTA, 0.16% saponin, 1.6% triton X, 10X SYBR Green I supplied as 10,000X […] by Invitrogen) was added to each well. The plates were mixed for 25 sec with gentle shaking and incubated overnight at room temperature in the dark. The following morning, fluorescence intensity at 485(14) nm excitation and 535(25) nm emission wavelengths was measured on an EnVision (Perkin Elmer) plate reader. Plate reads were normalized relative to the control inhibitor (0.29 uM artemisinin) and vehicle (DMSO) wells present on each plate and then corrected by an algorithm using vehicle-only control plates at the beginning and end of the compound plate stack.
row,SMILES,Potency
1,CCOc1ccc(F)cc1C1(O)C(N)=Nc2ccc(Cl)cc21 (stereo unspecified),"inconclusive: 0.0595 µM [inhibitor, full curve, poor fit]"
2,C[C@@H]1[C@@H](C(=O)C[C@H]2O[C@@H]3O[C@]4(C)CC[C@@H]5[C@H](C)CC[C@@H]([C@H]2C)[C@@]35OO4)O[C@@H]2O[C@]3(C)CC[C@H]4[C@H](C)CC[C@@H]1[C@@]24OO3,active: 0.0017 µM
3,COc1cc(C=CC(=O)CC(=O)C=Cc2ccc(O)c(OC)c2)ccc1O,active: 8.41 µM
4,C=CC(C)=C[C@@]1(C)SC(=O)C(C)=C1O,inactive
5,CNCCCCOc1ccccc1Cc1ccccc1,"inconclusive: 18.8 µM [inhibitor, single point]"
6,Oc1cc(Cl)ccc1Oc1ccc(Cl)cc1Cl,active: 1.88 µM
